{"sequences": {"note": "The chains behind the UniProt entries cited, without tags or fusion partners.", "UniProt P19793": "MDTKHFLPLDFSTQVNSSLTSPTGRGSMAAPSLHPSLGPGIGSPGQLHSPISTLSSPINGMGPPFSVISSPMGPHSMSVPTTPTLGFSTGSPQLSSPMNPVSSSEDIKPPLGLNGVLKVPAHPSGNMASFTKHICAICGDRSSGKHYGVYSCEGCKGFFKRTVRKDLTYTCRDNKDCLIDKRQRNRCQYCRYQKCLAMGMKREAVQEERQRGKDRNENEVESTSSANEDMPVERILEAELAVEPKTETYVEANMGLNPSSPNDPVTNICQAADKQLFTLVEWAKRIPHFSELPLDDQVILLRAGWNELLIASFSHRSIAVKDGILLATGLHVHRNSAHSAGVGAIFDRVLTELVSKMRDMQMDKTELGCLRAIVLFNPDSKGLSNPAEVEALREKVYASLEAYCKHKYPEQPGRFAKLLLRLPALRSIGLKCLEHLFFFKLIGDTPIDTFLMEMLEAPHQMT"}, "source": "patent US20110268748A1", "key": {"[1]": {"target": "Gal4NLBD589A (Gal4 DNA-binding domain fused to the Nurr1 ligand binding domain with alanine for aspartic acid at amino acid 589) (UniProt P04386)", "assay": "yeast two-hybrid, X-gal (white with the empty vector)"}, "[2]": {"target": "Gal4NLBD589A (Gal4 DNA-binding domain fused to the Nurr1 ligand binding domain with alanine for aspartic acid at amino acid 589) (UniProt P04386)", "assay": "yeast two-hybrid, growth on -His (no growth with the empty vector)"}}, "note": "No constants are given. Whether binding was seen depends on the method and setting. Some binding calls cover weakened binding; strength is not graded here.", "data": [{"substance": "pPC86-RXR (Gal4 activation domain fused to full-length human RXRα) (from UniProt P19793 1-462)", "values": [{"measurement": "binding", "setting": "[1]", "value": "binds"}, {"measurement": "binding", "setting": "[2]", "value": "binds"}]}]}
